This note sets out measurements from article PMC5900714.

Sequences of proteins named here, by UniProt entry; tags and fusion partners are left off.
UniProt Q9VCE6: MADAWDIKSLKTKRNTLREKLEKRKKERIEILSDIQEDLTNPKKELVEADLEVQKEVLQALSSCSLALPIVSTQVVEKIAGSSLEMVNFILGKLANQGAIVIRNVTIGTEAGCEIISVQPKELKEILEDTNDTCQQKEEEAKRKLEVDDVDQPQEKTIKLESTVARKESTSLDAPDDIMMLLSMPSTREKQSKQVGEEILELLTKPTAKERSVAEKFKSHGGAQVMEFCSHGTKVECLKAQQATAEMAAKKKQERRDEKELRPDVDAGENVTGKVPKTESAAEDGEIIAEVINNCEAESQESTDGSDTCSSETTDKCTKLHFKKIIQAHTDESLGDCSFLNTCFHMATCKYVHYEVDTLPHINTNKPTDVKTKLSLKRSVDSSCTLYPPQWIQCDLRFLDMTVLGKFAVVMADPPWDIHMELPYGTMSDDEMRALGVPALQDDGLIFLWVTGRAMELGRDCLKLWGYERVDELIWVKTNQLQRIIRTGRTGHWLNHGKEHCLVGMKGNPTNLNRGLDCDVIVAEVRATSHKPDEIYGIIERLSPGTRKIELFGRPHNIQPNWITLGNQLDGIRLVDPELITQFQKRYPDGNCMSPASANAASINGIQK
UniProt Q9W1R5: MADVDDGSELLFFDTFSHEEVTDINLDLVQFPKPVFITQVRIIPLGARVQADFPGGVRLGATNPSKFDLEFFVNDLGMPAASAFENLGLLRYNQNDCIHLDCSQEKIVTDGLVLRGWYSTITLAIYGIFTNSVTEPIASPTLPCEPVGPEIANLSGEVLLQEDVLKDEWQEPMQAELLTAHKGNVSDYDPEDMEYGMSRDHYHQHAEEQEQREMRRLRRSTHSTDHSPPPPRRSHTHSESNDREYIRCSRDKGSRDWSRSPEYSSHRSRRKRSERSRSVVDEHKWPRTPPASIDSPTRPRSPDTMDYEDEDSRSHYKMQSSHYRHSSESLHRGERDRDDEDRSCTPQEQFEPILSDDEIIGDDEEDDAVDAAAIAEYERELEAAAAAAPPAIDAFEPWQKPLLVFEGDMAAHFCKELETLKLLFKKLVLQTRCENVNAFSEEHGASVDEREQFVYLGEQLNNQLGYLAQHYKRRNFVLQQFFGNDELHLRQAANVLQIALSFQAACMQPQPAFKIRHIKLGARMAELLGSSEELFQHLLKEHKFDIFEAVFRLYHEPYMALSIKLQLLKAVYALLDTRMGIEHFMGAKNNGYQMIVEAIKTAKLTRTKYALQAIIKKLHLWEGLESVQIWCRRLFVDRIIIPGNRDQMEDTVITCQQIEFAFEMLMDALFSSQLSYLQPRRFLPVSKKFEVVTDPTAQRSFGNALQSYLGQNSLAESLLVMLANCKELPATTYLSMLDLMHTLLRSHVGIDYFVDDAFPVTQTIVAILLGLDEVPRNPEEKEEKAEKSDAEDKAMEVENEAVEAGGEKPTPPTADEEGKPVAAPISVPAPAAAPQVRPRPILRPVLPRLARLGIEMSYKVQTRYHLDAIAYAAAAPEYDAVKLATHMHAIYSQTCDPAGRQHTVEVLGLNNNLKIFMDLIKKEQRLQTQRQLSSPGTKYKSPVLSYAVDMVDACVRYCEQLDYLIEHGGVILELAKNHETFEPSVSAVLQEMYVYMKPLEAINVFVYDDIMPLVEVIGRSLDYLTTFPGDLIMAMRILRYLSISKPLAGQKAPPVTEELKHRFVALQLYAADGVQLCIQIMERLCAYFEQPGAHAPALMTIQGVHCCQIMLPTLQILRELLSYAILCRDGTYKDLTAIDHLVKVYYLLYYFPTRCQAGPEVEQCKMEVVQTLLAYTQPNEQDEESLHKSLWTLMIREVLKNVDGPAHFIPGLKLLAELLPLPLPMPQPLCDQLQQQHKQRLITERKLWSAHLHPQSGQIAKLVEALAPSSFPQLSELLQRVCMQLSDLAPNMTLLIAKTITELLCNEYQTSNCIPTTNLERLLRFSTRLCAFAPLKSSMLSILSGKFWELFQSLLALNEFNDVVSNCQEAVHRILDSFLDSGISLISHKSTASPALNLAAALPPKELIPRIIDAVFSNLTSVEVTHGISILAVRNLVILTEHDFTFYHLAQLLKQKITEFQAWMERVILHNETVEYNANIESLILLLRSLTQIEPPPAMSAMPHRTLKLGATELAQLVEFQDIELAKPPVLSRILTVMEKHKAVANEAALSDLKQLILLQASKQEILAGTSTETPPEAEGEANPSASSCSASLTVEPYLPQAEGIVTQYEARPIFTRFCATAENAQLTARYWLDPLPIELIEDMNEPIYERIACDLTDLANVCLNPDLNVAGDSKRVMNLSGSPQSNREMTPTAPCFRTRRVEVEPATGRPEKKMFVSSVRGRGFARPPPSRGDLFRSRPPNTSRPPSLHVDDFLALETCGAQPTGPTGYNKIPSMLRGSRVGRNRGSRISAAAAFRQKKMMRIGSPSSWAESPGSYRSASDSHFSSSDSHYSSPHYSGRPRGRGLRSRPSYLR

The target in test [1] is T1, Flacc-Myc (D. melanogaster) (UniProt Q9VWN4).
T1 sequence: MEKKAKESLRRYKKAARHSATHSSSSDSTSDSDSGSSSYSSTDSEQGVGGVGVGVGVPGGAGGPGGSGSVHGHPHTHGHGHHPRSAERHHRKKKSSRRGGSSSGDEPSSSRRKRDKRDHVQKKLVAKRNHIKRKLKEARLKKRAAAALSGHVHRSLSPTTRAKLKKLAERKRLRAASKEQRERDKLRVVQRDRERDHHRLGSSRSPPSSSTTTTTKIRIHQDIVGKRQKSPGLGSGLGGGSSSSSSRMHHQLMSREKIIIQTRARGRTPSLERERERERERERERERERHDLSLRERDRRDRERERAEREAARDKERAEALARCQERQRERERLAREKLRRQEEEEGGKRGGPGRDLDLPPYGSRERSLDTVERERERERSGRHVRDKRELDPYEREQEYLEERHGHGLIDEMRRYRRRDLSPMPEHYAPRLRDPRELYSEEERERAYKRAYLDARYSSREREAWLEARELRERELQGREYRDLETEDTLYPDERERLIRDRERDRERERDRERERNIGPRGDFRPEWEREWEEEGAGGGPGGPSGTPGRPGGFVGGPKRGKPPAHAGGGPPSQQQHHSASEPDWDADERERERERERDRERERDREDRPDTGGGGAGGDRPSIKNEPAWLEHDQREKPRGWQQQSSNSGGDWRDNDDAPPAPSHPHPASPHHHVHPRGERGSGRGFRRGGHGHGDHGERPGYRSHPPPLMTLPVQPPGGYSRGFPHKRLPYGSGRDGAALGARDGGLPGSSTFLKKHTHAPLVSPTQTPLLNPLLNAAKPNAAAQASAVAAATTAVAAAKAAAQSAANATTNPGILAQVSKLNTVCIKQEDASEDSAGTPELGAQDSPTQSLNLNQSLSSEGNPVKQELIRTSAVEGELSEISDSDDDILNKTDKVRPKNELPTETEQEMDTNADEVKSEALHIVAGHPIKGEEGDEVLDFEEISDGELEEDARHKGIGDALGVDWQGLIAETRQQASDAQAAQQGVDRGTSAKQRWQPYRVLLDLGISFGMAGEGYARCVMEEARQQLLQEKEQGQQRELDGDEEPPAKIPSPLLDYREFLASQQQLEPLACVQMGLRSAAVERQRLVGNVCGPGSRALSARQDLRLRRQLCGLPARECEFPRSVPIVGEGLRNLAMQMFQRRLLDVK
Description: co-IP; S2R+ cells co-transfected, lysate (50 mM Tris-HCl pH 7.4, 150 mM NaCl, 0.05% NP-40), anti-Myc antibody on protein G beads, Western blot; repeated with RNase T1 where told; control knock-down condition. (In general: In western blotting, separated proteins are transferred to a membrane and probed.)

Test [2] deals with T2, Nito, as used in the interaction tests of Supplemental Fig. S8 (D. melanogaster) (UniProt Q7KMJ6).
T2 sequence: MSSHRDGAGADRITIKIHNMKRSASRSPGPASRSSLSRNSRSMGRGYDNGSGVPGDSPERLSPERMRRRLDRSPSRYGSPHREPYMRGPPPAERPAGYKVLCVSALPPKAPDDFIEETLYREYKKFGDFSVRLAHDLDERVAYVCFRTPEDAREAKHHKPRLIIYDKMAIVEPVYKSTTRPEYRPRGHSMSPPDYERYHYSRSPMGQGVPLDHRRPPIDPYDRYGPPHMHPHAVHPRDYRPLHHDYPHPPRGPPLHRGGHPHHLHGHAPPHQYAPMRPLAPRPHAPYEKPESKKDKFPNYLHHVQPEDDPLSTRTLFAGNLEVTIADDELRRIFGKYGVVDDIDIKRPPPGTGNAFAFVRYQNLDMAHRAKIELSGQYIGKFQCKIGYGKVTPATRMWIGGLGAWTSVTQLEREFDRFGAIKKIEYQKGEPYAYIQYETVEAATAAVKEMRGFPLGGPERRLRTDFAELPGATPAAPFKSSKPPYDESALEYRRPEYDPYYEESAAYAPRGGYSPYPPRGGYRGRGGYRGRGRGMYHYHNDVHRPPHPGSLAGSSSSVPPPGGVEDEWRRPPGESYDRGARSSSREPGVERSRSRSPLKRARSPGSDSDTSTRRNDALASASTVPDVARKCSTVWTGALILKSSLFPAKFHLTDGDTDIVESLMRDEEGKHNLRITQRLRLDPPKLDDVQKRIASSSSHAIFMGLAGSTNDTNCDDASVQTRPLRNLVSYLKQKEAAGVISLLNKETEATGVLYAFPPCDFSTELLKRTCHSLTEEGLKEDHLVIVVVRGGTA
Briefly: co-IP; interactions between m6A writers in S2R+ cells, control and Flacc knock-down; details only in Supplemental Fig. S8 and its legend (not shown); method taken from the paper's co-immunoprecipitation methods.

Test [3] deals with Mettl3 (Drosophila) (D. melanogaster) (UniProt Q9VCE6). Described as above.
For test [4], the target named is T3, FlagMyc-Flacc (D. melanogaster) (UniProt Q9VWN4).
T3 sequence: T1 sequence
Description: co-IP; S2R+ cells co-transfected, lysate (50 mM Tris-HCl pH 7.4, 150 mM NaCl, 0.05% NP-40), anti-Myc antibody on protein G beads, Western blot; repeated with RNase T1 where told; control knock-down condition.

Results are given in words; binding and its absence hold for the method and conditions named. In cells and extracts the contact can be indirect. Some results given as binding are weak or reduced against the parent protein; the word gives no strength. For some of these results: Where a sequence is shown, tags or fusion partners need not be part of it.

“Vir (Virilizer), as used in the co-immunoprecipitations of Supplemental Figs. S3 and S8 (from UniProt Q9W1R5 1-1854)”: the binding result in test [1] and in test [2] was “binds” each time.

Turning to “Mettl3 (Drosophila) (from UniProt Q9VCE6 1-608) (enzyme)”, the binding result in test [2] was “binds”.

B1: Fl(2)d, as detected in the Flacc-Myc immunoprecipitate (Supplemental Fig. S3) (protein, UniProt Q9Y091 1-536)
chain: MSVAAMTMDDQRPCMNSYDKMPPTKYEQNLNILNSSQNSGATGGPASPTPSGLEDHHHHHHPHPHHHHHQEQQQQQQQQQHLQQQQQQQQQQHAAAVAEAVAAAEQRQRLLEDEIENLKLEQVRMAQQCADAQRREKILMRRLANKEQEFQDYVSQIAEYKAQQAPTALALRTALLDPAVNLLFERLKKELKATKAKLEETQNELSAWKFTPDSNTGKRLMAKCRLLYQENEELGKMTSNGRLAKLETELAMQKSFSEEVKKSQSELDDFLQELDEDVEGMQSTILFLQQELKTTRDRIQTLEKENAQLKQAIKDEVVAPAAATNGGTNTTINKLETIHEDACMANNPTNPDCYNGNTNNEQIAAVPQIPLSDDGSNMNGNAARLARKRNYQEEEALPTVVVVPTPTPVGNNVQEAPPIREVTAPRTLPPKKSKLRGITTRRNSQLEEDHQPVTTPVAVPMIVDNAVAGMASEEAAAAAAAVNNSNTGIIPETGVQVGVPVEGGDPGAPAAPGRILTRRRSVRMQQNGSGAVDYST
B1: the binding entry in test [1] is recorded as “binds”.

B2: Mettl14 (Drosophila) (protein, UniProt Q9VLP7 1-397)
chain: MSDVLKSSQERSRKRRLLLAQTLGLSSVDDLKKALGNAEDINSSRQLNSGGQREEEDGGASSSKKTPNEIIYRDSSTFLKGTQSSNPHNDYCQHFVDTGQRPQNFIRDVGLADRFEEYPKLRELIKLKDKLIQDTASAPMYLKADLKSLDVKTLGAKFDVILIEPPLEEYARAAPSVATVGGAPRVFWNWDDILNLDVGEIAAHRSFVFLWCGSSEGLDMGRNCLKKWGFRRCEDICWIRTNINKPGHSKQLEPKAVFQRTKEHCLMGIKGTVRRSTDGDFIHANVDIDLIISEEEEFGSFEKPIEIFHIIEHFCLGRRRLHLFGRDSSIRPGWLTVGPELTNSNFNSELYQTYFAEAPATGCTSRIELLRPKSPPPNSKVLRGRGRGFPRGRGRPR
For B2, the binding entry in test [3] and in test [2] was “binds” each time.

B3: HA-Nito (protein, UniProt Q7KMJ6 1-793)
chain: T2 sequence
Turning to B3, the binding entry in test [4] is on record as “binds”.
